From PubChem BioAssay AID328 (DTP/NCI, 2004)
The list does not hold the whole screen: it gathers tests that were run many times, whatever their T/C, doses with no T/C, and many T/C values between a quarter and a half above the control. Further doses and runs are listed elsewhere. T/C: endpoint of the treated group in % of that of the vehicle group. Some entries give survivors of the animals treated and no T/C: the source files T/C as zero there, which appears to mark a toxic dose or a test without result, not a measured value. Some survivor counts are full or nearly so, which does not show that the dose was tolerated: survival well below the control is almost never listed, so the zero probably covers shortened survival too. Survivors were counted at the toxicity check, usually on the fifth day, unless a day is given; later deaths do not show. Schedules are NCI's codes, read here as Q, the interval in days (D) or hours (H), X, the number of doses. Some doses were run more than once; the results are listed from low to high. Where survival is the endpoint, this PubChem deposit counts one and a half times the control or more as active, and values a quarter to a half above the control carry no call in these data; other NCI protocols may use other cut-offs. Some T/C values are followed by the survivors on the day toxicity was checked, most often the fifth; without a count, all were alive then.

System: BDF1 mice, P388 leukemia ip, median survival T/C
Assay: NCI In Vivo Anticancer Drug Screen. Data for tumor model P388 Leukemia (intraperitoneal) in B6D2F1 (BDF1) mice
Conditions: T/C endpoint: median survival time, higher T/C = longer survival
In short: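 Antitumour effect was judged in vivo: survival in drug-treated mice, normalised to that of vehicle-dosed controls, gives the reported T/C.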

[1] = dose: 8.0 mg/kg/injection, schedule: Q01DX010 (ip), vehicle: saline
[2] = dose: 16.0 mg/kg/injection, schedule: Q01DX010 (ip), vehicle: saline
[3] = dose: 32.0 mg/kg/injection, schedule: Q01DX010 (ip), vehicle: saline
[4] = dose: 200.0 mg/kg/injection, schedule: Q01DX009 (ip), vehicle: saline with Tween-80
[5] = dose: 50.0 mg/kg/injection, schedule: Q01DX009 (ip), vehicle: saline
[6] = dose: 100.0 mg/kg/injection, schedule: Q01DX009 (ip), vehicle: saline
[7] = dose: 100.0 mg/kg/injection, schedule: Q01DX009 (ip), vehicle: Klucel (hydroxypropylcellulose) (HPC)
[8] = dose: 200.0 mg/kg/injection, schedule: Q01DX009 (ip), vehicle: Klucel (hydroxypropylcellulose) (HPC)

COc1cc(C(=O)O)c2c(c1C)OC(=O)c1c(C)cc(O)c(C=O)c1O2
T/C (dose: 8.0 mg/kg/injection, schedule: Q01DX009 (ip), vehicle: Klucel (hydroxypropylcellulose) (HPC)): 131 % of control
T/C [1]: 127 and 147 % of control
T/C (dose: 16.0 mg/kg/injection, schedule: Q01DX009 (ip), vehicle: Klucel (hydroxypropylcellulose) (HPC)): 136 % of control
T/C [2]: 136 % of control
T/C (dose: 32.0 mg/kg/injection, schedule: Q01DX009 (ip), vehicle: Klucel (hydroxypropylcellulose) (HPC)): 140 % of control [5 of 6 alive]
T/C [3]: 127 [5 of 6 alive], 138, 140 % of control
T/C (dose: 40.0 mg/kg/injection, schedule: Q04DX003 (ip), vehicle: saline): 129 % of control
survivor count (dose: 63.0 mg/kg/injection, schedule: Q01DX010 (ip), vehicle: saline): 2 of 6
survivor count (dose: 64.0 mg/kg/injection, schedule: Q01DX009 (ip), vehicle: Klucel (hydroxypropylcellulose) (HPC)): 2 of 6
survivor count (dose: 64.0 mg/kg/injection, schedule: Q01DX010 (ip), vehicle: saline): 5 of 6
survivor count (dose: 160.0 mg/kg/injection, schedule: Q01DX001 (ip), vehicle: saline): 2 of 6
survivor count (dose: 320.0 mg/kg/injection, schedule: Q01DX001 (ip), vehicle: saline): 0 of 6

N#Cc1ccc(OC(=O)c2ccc(N=C(N)N)cc2)cc1
survivor count (dose: 400.0 mg/kg/injection, schedule: Q04DX003 (ip), vehicle: saline): 3 of 6

COC(OC)c1[nH]c(=S)[nH]c(=O)c1Cc1cc([N+](=O)[O-])ccc1O
survivor count (dose: 100.0 mg/kg/injection, schedule: Q04DX003 (ip), vehicle: saline with Tween-80): 6 of 6

CCOC(=O)/C(C#N)=C/N(C)Cc1ccccc1
survivor count [4]: 4 of 6

CC[P+](CC)(CC)CCCCI
survivor count [5]: 5 of 6
survivor count [6]: 0 of 6

CC[C@@H](C(=O)[C@@H](C)[C@@H](O)[C@H](C)CCc1ccc(C)c(O)c1C(=O)O)[C@H]1O[C@](CC)([C@H]2CC[C@](O)(CC)[C@H](C)O2)C[C@@H]1C
survivor count (dose: 25.0 mg/kg/injection, schedule: Q01DX009 (ip), vehicle: Klucel (hydroxypropylcellulose) (HPC)): 5 of 6
survivor count (dose: 50.0 mg/kg/injection, schedule: Q01DX009 (ip), vehicle: Klucel (hydroxypropylcellulose) (HPC)): 3 of 6
survivor count [7]: 2 of 6

CC(C)CCNc1ccc(NCCC(C)C)cc1
survivor count (dose: 37.5 mg/kg/injection, schedule: Q01DX009 (ip), vehicle: alcohol): 4 of 6
survivor count (dose: 55.0 mg/kg/injection, schedule: Q04DX003 (ip), vehicle: alcohol): 2 of 6
survivor count (dose: 75.0 mg/kg/injection, schedule: Q01DX009 (ip), vehicle: alcohol): 0 of 6

Cc1ccc(CNCC(=O)O)cc1
survivor count (dose: 25.0 mg/kg/injection, schedule: Q01DX009 (ip), vehicle: water): 4 of 6
survivor count (dose: 50.0 mg/kg/injection, schedule: Q01DX009 (ip), vehicle: water): 6 of 6
survivor count (dose: 100.0 mg/kg/injection, schedule: Q01DX009 (ip), vehicle: water): 6 of 6
survivor count (dose: 200.0 mg/kg/injection, schedule: Q01DX009 (ip), vehicle: water): 6 of 6

COc1cc2c(c(OC)c1OC)-c1ccc(OC)c(=O)cc1[C@@H](NC(=O)CF)CC2
survivor count (dose: 0.37 mg/kg/injection, schedule: Q01DX009 (ip), vehicle: saline with Tween-80): 5 of 6
survivor count (dose: 0.75 mg/kg/injection, schedule: Q01DX009 (ip), vehicle: saline with Tween-80): 0 of 6
survivor count (dose: 0.75 mg/kg/injection, schedule: Q01DX009 (ip), vehicle: saline): 3 of 6
survivor count (dose: 1.12 mg/kg/injection, schedule: Q01DX009 (ip), vehicle: saline with Tween-80): 0 of 6
survivor count (dose: 1.12 mg/kg/injection, schedule: Q01DX009 (ip), vehicle: saline): 4 of 6
T/C (dose: 11.5 micrograms/kg/injection, schedule: Q01DX009 (ip), vehicle: saline with Tween-80): 128 % of control
T/C (dose: 23.1 micrograms/kg/injection, schedule: Q01DX009 (ip), vehicle: saline with Tween-80): 144 % of control
T/C (dose: 92.5 micrograms/kg/injection, schedule: Q01DX009 (ip), vehicle: saline with Tween-80): 140 % of control

c1ccc2c(c1)[nH]c1c2c[n+]2c3c(cccc13)CCC2
T/C (dose: 12.5 mg/kg/injection, schedule: Q01DX009 (ip), vehicle: saline): 133 % of control

Nc1ncc(C2OC(CO)C(O)C2O)c(=O)[nH]1 (stereo not drawn)
T/C (dose: 16.0 mg/kg/injection, schedule: Q01DX005 (ip), vehicle: saline): 132 % of control
T/C (dose: 32.0 mg/kg/injection, schedule: Q01DX005 (ip), vehicle: saline): 133 and 141 % of control
T/C (dose: 64.0 mg/kg/injection, schedule: Q01DX005 (ip), vehicle: saline): 135 and 148 % of control
survivor count (dose: 128.0 mg/kg/injection, schedule: Q01DX005 (ip), vehicle: saline): 5 of 6
survivor count (dose: 256.0 mg/kg/injection, schedule: Q01DX005 (ip), vehicle: saline): 2 of 6 and 5 of 6
survivor count (dose: 512.0 mg/kg/injection, schedule: Q01DX005 (ip), vehicle: saline): 0 of 6

CCCCCCCCCCCC(c1ccccc1)[N+](C)(C)C (stereo not drawn)
T/C (dose: 4.0 mg/kg/injection, schedule: Q01DX010 (ip), vehicle: saline): 130 % of control
T/C [1]: 125 % of control
survivor count [1]: 3 of 6
survivor count [2]: 3 of 6
survivor count [3]: 0 of 6
survivor count (dose: 32.0 mg/kg/injection, schedule: Q04DX003 (ip), vehicle: saline): 5 of 6

CO[C@@]12[C@H](COC(N)=O)C3=C(C(=O)C(C)=C(N)C3=O)N1C[C@@H]1N[C@@H]12
T/C (dose: 0.13 mg/kg/injection, schedule: Q01DX010 (ip), vehicle: saline): 138 and 140 % of control [4 of 6 alive]
survivor count (dose: 6.5 mg/kg/injection, schedule: Q04DX003 (ip), vehicle: saline): 8 of 8
survivor count (dose: 10.8 mg/kg/injection, schedule: Q04DX003 (ip), vehicle: saline): 8 of 8
survivor count (dose: 12.0 mg/kg/injection, schedule: Q01DX001 (ip), vehicle: saline): 10 of 10
survivor count (dose: 18.0 mg/kg/injection, schedule: Q04DX003 (ip), vehicle: saline): 5 of 8
survivor count (dose: 30.0 mg/kg/injection, schedule: Q04DX003 (ip), vehicle: saline): 2 of 8

C[C@]12C=CC(=O)C=C1CC[C@H]1[C@@H]3C[C@@H](O)[C@](O)(C(=O)CO)[C@@]3(C)C[C@H](O)[C@@]12F
T/C [7]: 125 % of control
survivor count (dose: 132.0 mg/kg/injection, schedule: Q01DX009 (ip), vehicle: Klucel (hydroxypropylcellulose) (HPC)): 6 of 6
T/C [8]: 125 % of control
survivor count [8]: 4 of 6
survivor count (dose: 300.0 mg/kg/injection, schedule: Q01DX009 (ip), vehicle: Klucel (hydroxypropylcellulose) (HPC)): 2 of 6 and 3 of 6

CCSc1ccc2c(cc1=O)[C@@H](NC1OC(CO)C(O)C(O)C1O)CCc1cc(OC)c(OC)c(OC)c1-2 (stereo partly drawn)
T/C (dose: 200.0 mg/kg/injection, schedule: Q01DX009 (ip), vehicle: other): 133 % of control

CCSC(=O)N1c2ccc(OC)cc2C=CC1C#N (stereo not drawn)
T/C (dose: 266.0 mg/kg/injection, schedule: Q04DX003 (ip), vehicle: saline with Tween-80): 125 % of control
T/C (dose: 400.0 mg/kg/injection, schedule: Q04DX003 (ip), vehicle: saline with Tween-80): 125 % of control

CC(=O)[O][Pb]([O]C(C)=O)([c]1ccccc1)[c]1ccccc1
T/C (dose: 100.0 mg/kg/injection, schedule: Q01DX009 (ip), vehicle: saline with Tween-80): 148 % of control
survivor count [4]: 6 of 6
survivor count (dose: 400.0 mg/kg/injection, schedule: Q01DX009 (ip), vehicle: saline with Tween-80): 5 of 6

CC(CN1CC(=O)NC(=O)C1)N1CC(=O)NC(=O)C1.[Cl-].[Pt+4] (stereo not drawn)
T/C [5]: 129 % of control
T/C [6]: 148 % of control
T/C (dose: 200.0 mg/kg/injection, schedule: Q01DX009 (ip), vehicle: saline): 141 % of control
